Laboratory results from US20160068604A1 (University of Texas, published 2016).
Results are given in words; binding and its absence hold for the method and conditions named. Some binding calls cover weakened binding; strength is not graded here.

Assays:
human OX40 [1] = target: T1, human OX40 (human, UniProt P43489 29-277); experiment: flow cytometry on mixed L and L-hOX40 cells, 0.5 µg purified antibody, PE anti-mouse IgG
T1 construct: whole, on cells; also called hOX40; OX40 receptor
T1 sequence (looked up): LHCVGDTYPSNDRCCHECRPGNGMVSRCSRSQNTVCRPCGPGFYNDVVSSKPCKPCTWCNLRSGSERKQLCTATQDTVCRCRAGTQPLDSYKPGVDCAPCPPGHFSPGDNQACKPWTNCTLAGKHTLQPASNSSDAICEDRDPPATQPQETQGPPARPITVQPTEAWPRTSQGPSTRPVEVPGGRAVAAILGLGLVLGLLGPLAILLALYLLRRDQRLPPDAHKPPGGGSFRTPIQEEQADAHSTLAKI

human OX40 [2] = target: T1, human OX40; experiment: flow cytometry on mixed SUPM2 and SUPM2-hOX40 cells
human OX40 [3] = target: T1, human OX40; experiment: cell ELISA on dried L-hOX40 versus parental L cells, anti-mouse IgG Fc HRP
Experimental: In the experiment of FIG. 10, hOX40 hybridoma supernatants were screened against L-hOX40 versus L parental cells by ELISA. […] Plates were then frozen at −20° C. for at least one day before use. For antibody binding assays, frozen cells were rehydrated with PBS and washed with wash buffer containing PBS plus 0.05% Tween 20, and blocked with 2% BSA in wash buffer. Conditioned cells were then used for binding to OX40 antibody supernatants.

- binding (human OX40 [1]): binds
- binding (human OX40 [2]): binds
- binding (human OX40 [3]): binds
B1: mouse anti-human OX40 monoclonal antibody 119-43 (antibody, V domains shown)
VH: EVKLEESGGGLVQPGGSMKLSCAASGFTFSDAWMDWVRQSPEKGLEWVAEIRSKANNHATYYAESVNGRFTISRDDSKSSVYLQMNSLRAEDTGIYYCTWGEVFYFDYWGQGTTLTVSS
VL: DIQMTQSPSSLSASLGGKVTITCKSSQDINKYIAWYQHKPGKGPRLLIHYTSTLQPGIPSRFSGSGSGRDYSFSISNLEPEDIATYYCLQYDNLLTFGAGTKLELK
